Reference: PubChem BioAssay AID1117359 (Southern Research Institute, 2015)
“And” between values parts separate entries of the source, which are not always exact repeats. Identical values can stand only once. In all, about 1,500 compounds went through this assay and about 460 (31%) were called active.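 The calls were made as follows: active = viability at or below 80% at any tested concentration, marking the compound as toxic; inactive = the rest.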 This is a selection; strong and weak results do not stand in their true shares. Measured potencies and affinities stand elsewhere.

Experiment: viability loss in THP-1 monocytes – THP-1 cells, cytotoxicity control for Vif-APOBEC3G degradation inhibitor project, dose response (AID 1117359)
Settings: THP-1 viability, CellTiter-Glo luminescence, 72 h; at 40 µM (top of the series)

SMILES	viability
N/C(=N\N=C/c1ccc(-c2ccc(O)c(C(=O)O)c2)o1)N[N+](=O)[O-]	inactive: 85.1%
COCOC1CCC2C3CCC4=CC(=O)CCC4=C3C=CC12C (configuration not stated)	inactive: 103%
CCN(CC)C(=O)c1ccc2c(c1)C1C(Cl)C(Sc3ccccc3[N+](=O)[O-])CC1C(C(=O)O)N2 (configuration not stated)	inactive: 102%
CN1C(=O)/C(=C/C=C/c2ccco2)C(=O)NC1=S	inactive: 97.3%
O=C1NC(=O)C(=Cc2ccc(SC3CCCCC3)o2)C(=O)N1	inactive: 90.6%
O=C1C=Cc2ccccc2C1=O	inactive: 102%
O=C1NC(=O)N(Cc2ccco2)C(=O)/C1=C/C=C/c1ccco1	inactive: 86.6%
CSc1ccc(C(=O)C2CCCN(Cc3ccn[nH]3)C2)cc1 (configuration not stated)	inactive: 87.4%
Cc1cccc(OCCn2cccc2/C=C2/C(=O)NC(=O)N(Cc3ccco3)C2=O)c1	inactive: 87.6%
CCN(CC)c1ccc(N=Cc2c(O)n(CCc3ccc(OC)c(OC)c3)c(=O)[nH]c2=O)cc1	inactive: 101%
CN1CCN(c2ccc(N)cc2)CC1	inactive: 113%
COc1ccc(CN2C(=O)NC(=O)/C(=C/c3ccc([N+](=O)[O-])o3)C2=O)cc1	inactive: 96%
O=C(O)Cn1cc(/C=C2\C(=O)NC(=O)N(Cc3ccco3)C2=O)c2ccccc21	inactive: 87.1%
CCN1C(=O)N(CC)C(=O)C2(Cc3ccccc3N3CCN(c4ccccc4)CC32)C1=O (configuration not stated)	inactive: 86.3%
Cc1cc(/C=C2\C(=O)NC(=O)N(c3cccc(F)c3)C2=O)c(C)n1-c1cc(C(=O)O)cc(C(=O)O)c1	inactive: 85.9%
CCN(CC)C(=O)c1ccc2c(c1)C1C=CCC1C(C(=O)O)N2 (configuration not stated)	inactive: 91.2%
COc1ccc(-n2c(O)c(C=NCCN(C)C)c(=O)[nH]c2=O)cc1	inactive: 110%
CCN(CC)CCN=Cc1c(O)n(Cc2ccco2)c(=O)[nH]c1=O	inactive: 95.4%
CC(Cc1ccc(O)cc1)NCC(O)c1ccc(O)c(O)c1 (configuration not stated)	inactive: 99.5%
O=C1NC(=O)N(c2cccc(Cl)c2)C(=O)/C1=C\c1ccc(Sc2nc3ccccc3[nH]2)o1	inactive: 106%
NNC(=O)CN1C(=O)CN=C(c2ccccc2)c2cc(Br)ccc21	inactive: 115%
O=C1CC23c4ccccc4N4C(=O)CC5OCC=C6CN1C2CC6C5C43 (configuration not stated)	inactive: 94%
Cn1c(O)c(/C=N/NC(=O)c2ccncc2)c(=O)[nH]c1=S	inactive: 91.3%
Cc1cccc(N2C(=O)NC(=O)/C(=C/c3cc4c(cc3[N+](=O)[O-])OCO4)C2=O)c1	inactive: 96.4%
O=C(O)c1ccc2c(c1)C1C(Cl)C(Sc3ccccc3[N+](=O)[O-])CC1C(c1cccc([N+](=O)[O-])c1)N2 (configuration not stated)	inactive: 93.6%
COc1ccccc1N1C(=O)NC(=O)/C(=C/c2ccc([N+](=O)[O-])s2)C1=O	inactive: 80.4%

SMILES	viability
O=C1NC(=S)N(c2ccc(F)cc2)C(=O)/C1=C\c1ccoc1	inactive: 89.7%
Cc1ccc(N2C(=O)NC(=O)/C(=C\C=C\c3ccco3)C2=O)cc1	inactive: 103%
O=C1NC(=O)C(=CN2CCc3ccccc32)C(=O)N1	inactive: 86.7%
Cc1cccc(N2C(=O)/C(=C/c3ccc(CN(CCC#N)S(C)(=O)=O)o3)C(=O)NC2=S)c1	inactive: 111%
Oc1ccc(C[C@H]2NCCc3cc(O)c(O)cc32)cc1O	inactive: 91%
COc1ccc(CN2C(=O)NC(=O)/C(=C/c3ccc([N+](=O)[O-])s3)C2=O)cc1	inactive: 95.2%
O=C1NC(=O)C(=Cc2ccco2)C(=O)N1	inactive: 107%
CCc1ccc(N2C(=O)NC(=O)/C(=C\C=C\c3ccco3)C2=O)cc1	inactive: 94.9%
Cc1ccc(N2C(=O)/C(=C/c3ccc(CN(CCC#N)S(C)(=O)=O)o3)C(=O)NC2=S)cc1	inactive: 103%
CN(C)[C@@H]1C(=O)C(C(N)=O)=C(O)[C@@]2(O)C(=O)C3=C(O)c4c(O)ccc(Cl)c4[C@@](C)(O)C3C[C@@H]12 (some centres not stated)	inactive: 98.9%
CC1=C(C(=O)O)N2C(=O)[C@@H](NC(=O)CCCC(=O)O)[C@H]2SC1	inactive: 113%
O=C1NC(=O)N(c2ccc(Cl)cc2)C(=O)/C1=C\c1ccc(Sc2nc3ccccc3[nH]2)o1	inactive: 105%
CC(=O)Nc1ccc(S(=O)(=O)N2Cc3cnnn3-c3ccccc3C2C#N)cc1 (configuration not stated)	inactive: 99.5%
Oc1ccc(/C=N/NP(=S)(c2ccccc2)c2ccccc2)c(O)c1O	inactive: 85%
C=CCN1C(=O)C2(C(C(=O)OCC)=C(N)Oc3ccccc32)c2c1c1ccccc1oc2=O (configuration not stated)	inactive: 94.2%
O=S(=O)(O)C(=Cc1ccccc1)c1ccccc1 (tested in a mixture with another compound)	inactive: 86.7%
O=C1CC=C2C3CC4N(CCC45c4cc(O)c(O)cc4N1C25)CC3=CCBr (configuration not stated)	inactive: 100%
COc1cccc(N2C(=O)NC(=O)/C(=C/c3ccc([N+](=O)[O-])s3)C2=O)c1	inactive: 83.2%
O=C(O)C1Cc2ccccc2N2CCCC12 (configuration not stated)	inactive: 106%
O=C1NC(=S)N(c2ccccc2)C(=O)/C1=C/c1ccco1	inactive: 85.1%
Cc1cc(/C=C2\C(=O)NC(=O)N(Cc3ccco3)C2=O)c(C)n1-c1ccc(O)cc1	inactive: 96.5%
O=C(O)CC1OCC=C2CN3CCC45C6=CC(=O)C(=O)C([N+](=O)[O-])=C6NC4C1C2CC35 (configuration not stated)	inactive: 92.6% and inactive: 105%
CC(C)c1ccc(C2N3CCCN23)cc1 (configuration not stated)	inactive: 105%
O=C1NC(=O)N(c2ccccc2)C(=O)/C1=C\c1ccc([N+](=O)[O-])s1	inactive: 84.6%
O=C(O)c1cccc2c1NC(C(=O)O)C1CC(Sc3ccccc3[N+](=O)[O-])C(Cl)C21 (configuration not stated)	inactive: 105%
CCSC1=NN1c1cc(C)nc(N)n1	inactive: 92.7%
